# Data taken from the supplement of paper PMC8728848.
# The other results are listed elsewhere or left out.
# B1: TAL6-4LysM (Trichoderma atroviride) (protein)
# chain: AADSIPSISPTGIITPTPTQSGMVSNCNKFYDVHSNDGCSAIASSQHVDLSSLYKWNPAIKTDCSGLQASVYVCIGILTTSMSTTSKLPTTTSKPSTTSKPPTGITTPTPTQSGMVKNCNKFYDVHSGDGCSAIASSQKVNLSSFYLWNPAVKTDCSGLQASVFVCIGTLTTSMSTTTSKLPTTTSKPSTTSKPPTGIITPTPTQNGMVKNCNKFYDVHSGDGCSAIASSQKVNLSSFYLWNPAVKTDCSGLQASVFVCVGTATTTTAAGITTPTPTQSGMVSGCNKFYDVHAGDGCSAIASSQKIALSSLYKWNPAVKTDCSGLQASVYICIGVGNAAAARVTGALEQKLISEEDLNSAVDHHHHHH
# Columns and labels:
# Experiment in all cases: glycan array binding signal (z-score within array); higher = stronger binding
# Settings in all cases: glycan notation: IUPAC condensed, linker removed
# [1] = biological target: Fuc(a1-2)Gal(b1-4)GlcNAc(b1-3)Gal(b1-4)GlcNAc(b1-3)Gal(b1-4)GlcNAc
# Outline: (§1)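 The binding signal is a Z-score computed within each array and averaged over linkers. Arrays of the same protein sequence at different concentrations or buffers were also averaged together. Data originate from 3228 arrays in the Consortium for Functional Glycomics database, kept only where the protein sequence was available.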
# [2] = biological target: Fuc(a1-2)Gal(b1-4)GlcNAc(b1-3)GalNAc
# Outline: as §1
# [3] = biological target: Fuc(a1-2)Gal(b1-4)GlcNAc(b1-3)[Fuc(a1-2)Gal(b1-4)GlcNAc(b1-6)]GalNAc
# Outline: as §1
# [4] = biological target: Fuc(a1-2)Gal(b1-4)GlcNAc(b1-3)[Fuc(a1-3)[Gal(b1-4)]GlcNAc(b1-6)]Gal(b1-4)Glc
# Outline: as §1
# [5] = biological target: Fuc(a1-2)Gal(b1-4)GlcNAc(b1-6)GalNAc
# Outline: as §1
# [6] = biological target: Fuc(a1-2)Gal(b1-4)GlcNAc6S
# Outline: as §1
# [7] = biological target: Fuc(a1-2)Gal(b1-4)[Fuc(a1-3)]GlcNAc
# Outline: as §1
# [8] = biological target: Fuc(a1-2)Gal(b1-4)[Fuc(a1-3)]GlcNAc(b1-2)Man(a1-3)[Fuc(a1-2)Gal(b1-4)[Fuc(a1-3)]GlcNAc(b1-2)Man(a1-6)]Man(b1-4)GlcNAc(b1-4)[Fuc(a1-6)]GlcNAc
# Outline: as §1
# [9] = biological target: Fuc(a1-2)Gal(b1-4)[Fuc(a1-3)]GlcNAc(b1-2)[Fuc(a1-2)Gal(b1-4)[Fuc(a1-3)]GlcNAc(b1-4)]Man(a1-3)[Fuc(a1-2)Gal(b1-4)[Fuc(a1-3)]GlcNAc(b1-2)Man(a1-6)]Man(b1-4)GlcNAc(b1-4)GlcNAc
# Outline: as §1
# [10] = biological target: Fuc(a1-2)Gal(b1-4)[Fuc(a1-3)]GlcNAc(b1-3)Gal(b1-4)[Fuc(a1-3)]GlcNAc
# Outline: as §1
# [11] = biological target: Fuc(a1-2)Gal(b1-4)[Fuc(a1-3)]GlcNAc(b1-3)Gal(b1-4)[Fuc(a1-3)]GlcNAc(b1-3)Gal(b1-4)[Fuc(a1-3)]GlcNAc
# Outline: as §1
# [12] = biological target: Fuc(a1-2)Gal(b1-4)[Fuc(a1-3)]GlcNAc(b1-3)GalNAc
# Outline: as §1
# [13] = biological target: Fuc(a1-2)Gal(b1-4)[Fuc(a1-3)]GlcNAc(b1-3)[Neu5Ac(a2-6)Gal(b1-4)GlcNAc(b1-6)]Gal(b1-4)Glc
# Outline: as §1
# [14] = biological target: Fuc(a1-2)Gal3S(b1-4)GlcNAc
# Outline: as §1
# [15] = biological target: Fuc(a1-2)Gal6S(b1-3)GlcNAc
# Outline: as §1
# [16] = biological target: Fuc(a1-2)Gal6S(b1-3)GlcNAc6S
# Outline: as §1
# [17] = biological target: Fuc(a1-2)Gal6S(b1-4)Glc
# Outline: as §1
# [18] = biological target: Fuc(a1-2)Gal6S(b1-4)Glc6S
# Outline: as §1
# [19] = biological target: Fuc(a1-2)[Gal(a1-3)]Gal
# Outline: as §1
# [20] = biological target: Fuc(a1-2)[Gal(a1-3)]Gal(b1-3)GalNAc
# Outline: as §1
# [21] = biological target: Fuc(a1-2)[Gal(a1-3)]Gal(b1-3)GalNAc(b1-3)Gal(a1-4)Gal(b1-4)Glc
# Outline: as §1
# [22] = biological target: Fuc(a1-2)[Gal(a1-3)]Gal(b1-3)GlcNAc
# Outline: as §1
# [23] = biological target: Fuc(a1-2)[Gal(a1-3)]Gal(b1-3)GlcNAc(b1-2)Man(a1-3)[Fuc(a1-2)[Gal(a1-3)]Gal(b1-3)GlcNAc(b1-2)Man(a1-6)]Man(b1-4)GlcNAc(b1-4)GlcNAc
# Outline: as §1
# [24] = biological target: Fuc(a1-2)[Gal(a1-3)]Gal(b1-3)GlcNAc(b1-2)Man(a1-3)[Fuc(a1-2)[Gal(a1-3)]Gal(b1-3)GlcNAc(b1-2)Man(a1-6)]Man(b1-4)GlcNAc(b1-4)[Fuc(a1-6)]GlcNAc
# Outline: as §1
# [25] = biological target: Fuc(a1-2)[Gal(a1-3)]Gal(b1-3)GlcNAc(b1-3)GalNAc
# Outline: as §1
# [26] = biological target: Fuc(a1-2)[Gal(a1-3)]Gal(b1-3)GlcNAc(b1-6)GalNAc
# Outline: as §1
# [27] = biological target: Fuc(a1-2)[Gal(a1-3)]Gal(b1-4)Glc
# Outline: as §1
# [28] = biological target: Fuc(a1-2)[Gal(a1-3)]Gal(b1-4)GlcNAc
# Outline: as §1
# [29] = biological target: Fuc(a1-2)[Gal(a1-3)]Gal(b1-4)GlcNAc(b1-2)Man
# Outline: as §1
# [30] = biological target: Fuc(a1-2)[Gal(a1-3)]Gal(b1-4)GlcNAc(b1-2)Man(a1-3)[Fuc(a1-2)[Gal(a1-3)]Gal(b1-4)GlcNAc(b1-2)Man(a1-6)]Man(b1-4)GlcNAc(b1-4)GlcNAc
# Outline: as §1
# [31] = biological target: Fuc(a1-2)[Gal(a1-3)]Gal(b1-4)GlcNAc(b1-2)Man(a1-3)[Fuc(a1-2)[Gal(a1-3)]Gal(b1-4)GlcNAc(b1-2)Man(a1-6)]Man(b1-4)GlcNAc(b1-4)[Fuc(a1-6)]GlcNAc
# Outline: as §1
# [32] = biological target: Fuc(a1-2)[Gal(a1-3)]Gal(b1-4)GlcNAc(b1-3)GalNAc
# Outline: as §1
# [33] = biological target: Fuc(a1-2)[Gal(a1-3)]Gal(b1-4)GlcNAc(b1-3)[Fuc(a1-2)[Gal(a1-3)]Gal(b1-4)GlcNAc(b1-6)]GalNAc
# Outline: as §1
# [34] = biological target: Fuc(a1-2)[Gal(a1-3)]Gal(b1-4)GlcNAc(b1-6)GalNAc
# Outline: as §1
# [35] = biological target: Fuc(a1-2)[Gal(a1-3)]Gal(b1-4)[Fuc(a1-3)]Glc
# Outline: as §1
# [36] = biological target: Fuc(a1-2)[Gal(a1-3)]Gal(b1-4)[Fuc(a1-3)]GlcNAc
# Outline: as §1
# [37] = biological target: Fuc(a1-2)[Gal(a1-3)]Gal(b1-4)[Fuc(a1-3)]GlcNAc(b1-3)GalNAc
# Outline: as §1
binder,measurement,setting,value
B1,glycan array binding signal (z-score),[1],-0.327
same,glycan array binding signal (z-score),[2],-0.49
same,glycan array binding signal (z-score),[3],-0.02
same,glycan array binding signal (z-score),[4],0.207
same,glycan array binding signal (z-score),[5],-0.321
same,glycan array binding signal (z-score),[6],-0.315
same,glycan array binding signal (z-score),[7],-0.061
same,glycan array binding signal (z-score),[8],0.778
same,glycan array binding signal (z-score),[9],-1.12
same,glycan array binding signal (z-score),[10],-0.867
same,glycan array binding signal (z-score),[11],0.899
same,glycan array binding signal (z-score),[12],0.753
same,glycan array binding signal (z-score),[13],-0.571
same,glycan array binding signal (z-score),[14],-0.371
same,glycan array binding signal (z-score),[15],-0.214
same,glycan array binding signal (z-score),[16],-0.084
same,glycan array binding signal (z-score),[17],-0.202
same,glycan array binding signal (z-score),[18],-0.234
same,glycan array binding signal (z-score),[19],0.228
same,glycan array binding signal (z-score),[20],-0.474
same,glycan array binding signal (z-score),[21],-0.13
same,glycan array binding signal (z-score),[22],-0.6
same,glycan array binding signal (z-score),[23],-0.336
same,glycan array binding signal (z-score),[24],1.16
same,glycan array binding signal (z-score),[25],-1.31
same,glycan array binding signal (z-score),[26],-0.942
same,glycan array binding signal (z-score),[27],1.5
same,glycan array binding signal (z-score),[28],-0.335
same,glycan array binding signal (z-score),[29],-0.251
same,glycan array binding signal (z-score),[30],1.01
same,glycan array binding signal (z-score),[31],-0.859
same,glycan array binding signal (z-score),[32],-1.98
same,glycan array binding signal (z-score),[33],-0.676
same,glycan array binding signal (z-score),[34],0.471
same,glycan array binding signal (z-score),[35],0.037
same,glycan array binding signal (z-score),[36],0.469
same,glycan array binding signal (z-score),[37],-1.81

# A second format for part of the listing above.
binder	measurement	setting	value
B1	glycan array binding signal (z-score)	[4]	0.207
same	glycan array binding signal (z-score)	[5]	-0.321
same	glycan array binding signal (z-score)	[6]	-0.315
same	glycan array binding signal (z-score)	[7]	-0.061
same	glycan array binding signal (z-score)	[8]	0.778
same	glycan array binding signal (z-score)	[9]	-1.12
same	glycan array binding signal (z-score)	[10]	-0.867
same	glycan array binding signal (z-score)	[11]	0.899
same	glycan array binding signal (z-score)	[12]	0.753
